# Experimental data: the supplement of paper PMC6411743
# Protein sequences, listed by entry. Tags and fused reporters are not part of them. Lines headed by an entry give the natural chain unless they say otherwise; changes in a name come on top.
# UniProt Q9H008: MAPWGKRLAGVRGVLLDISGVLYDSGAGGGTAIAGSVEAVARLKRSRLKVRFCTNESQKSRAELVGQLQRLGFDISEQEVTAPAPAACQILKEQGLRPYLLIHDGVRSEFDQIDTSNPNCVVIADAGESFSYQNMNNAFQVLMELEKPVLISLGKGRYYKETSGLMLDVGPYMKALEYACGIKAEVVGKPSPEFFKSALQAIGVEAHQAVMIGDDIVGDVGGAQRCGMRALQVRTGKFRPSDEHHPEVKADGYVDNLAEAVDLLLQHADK
# UniProt Q9H410: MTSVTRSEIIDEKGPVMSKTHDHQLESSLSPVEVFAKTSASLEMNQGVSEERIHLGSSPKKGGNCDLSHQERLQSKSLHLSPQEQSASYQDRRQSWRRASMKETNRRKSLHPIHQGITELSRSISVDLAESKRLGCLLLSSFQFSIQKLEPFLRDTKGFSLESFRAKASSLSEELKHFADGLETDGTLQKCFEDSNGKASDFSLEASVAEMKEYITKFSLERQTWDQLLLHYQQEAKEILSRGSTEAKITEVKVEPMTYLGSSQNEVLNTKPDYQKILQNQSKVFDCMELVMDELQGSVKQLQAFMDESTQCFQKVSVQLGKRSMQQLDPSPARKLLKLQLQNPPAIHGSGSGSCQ
# UniProt Q9H4B0: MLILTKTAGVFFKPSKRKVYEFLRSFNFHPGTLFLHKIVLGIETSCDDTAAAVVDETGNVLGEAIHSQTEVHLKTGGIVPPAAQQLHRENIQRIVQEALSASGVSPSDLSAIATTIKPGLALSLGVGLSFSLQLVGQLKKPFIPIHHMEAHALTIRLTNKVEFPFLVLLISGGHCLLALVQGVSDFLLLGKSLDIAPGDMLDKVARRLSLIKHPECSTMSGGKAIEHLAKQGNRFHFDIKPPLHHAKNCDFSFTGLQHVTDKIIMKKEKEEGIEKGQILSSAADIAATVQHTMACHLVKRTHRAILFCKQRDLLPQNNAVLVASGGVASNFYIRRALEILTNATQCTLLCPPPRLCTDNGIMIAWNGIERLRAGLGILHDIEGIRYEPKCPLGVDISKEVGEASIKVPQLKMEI
# UniProt Q9GZT8: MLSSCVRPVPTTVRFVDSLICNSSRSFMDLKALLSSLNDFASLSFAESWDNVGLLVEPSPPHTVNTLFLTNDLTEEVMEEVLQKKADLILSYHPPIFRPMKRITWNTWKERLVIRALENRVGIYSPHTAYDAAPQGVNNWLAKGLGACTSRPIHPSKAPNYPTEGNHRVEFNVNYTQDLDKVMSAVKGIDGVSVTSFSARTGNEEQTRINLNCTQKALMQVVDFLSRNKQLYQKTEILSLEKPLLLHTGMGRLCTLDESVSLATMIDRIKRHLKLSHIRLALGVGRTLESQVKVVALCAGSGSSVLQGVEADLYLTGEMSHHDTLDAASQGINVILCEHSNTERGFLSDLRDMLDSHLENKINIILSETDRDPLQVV
# UniProt Q9H2G2: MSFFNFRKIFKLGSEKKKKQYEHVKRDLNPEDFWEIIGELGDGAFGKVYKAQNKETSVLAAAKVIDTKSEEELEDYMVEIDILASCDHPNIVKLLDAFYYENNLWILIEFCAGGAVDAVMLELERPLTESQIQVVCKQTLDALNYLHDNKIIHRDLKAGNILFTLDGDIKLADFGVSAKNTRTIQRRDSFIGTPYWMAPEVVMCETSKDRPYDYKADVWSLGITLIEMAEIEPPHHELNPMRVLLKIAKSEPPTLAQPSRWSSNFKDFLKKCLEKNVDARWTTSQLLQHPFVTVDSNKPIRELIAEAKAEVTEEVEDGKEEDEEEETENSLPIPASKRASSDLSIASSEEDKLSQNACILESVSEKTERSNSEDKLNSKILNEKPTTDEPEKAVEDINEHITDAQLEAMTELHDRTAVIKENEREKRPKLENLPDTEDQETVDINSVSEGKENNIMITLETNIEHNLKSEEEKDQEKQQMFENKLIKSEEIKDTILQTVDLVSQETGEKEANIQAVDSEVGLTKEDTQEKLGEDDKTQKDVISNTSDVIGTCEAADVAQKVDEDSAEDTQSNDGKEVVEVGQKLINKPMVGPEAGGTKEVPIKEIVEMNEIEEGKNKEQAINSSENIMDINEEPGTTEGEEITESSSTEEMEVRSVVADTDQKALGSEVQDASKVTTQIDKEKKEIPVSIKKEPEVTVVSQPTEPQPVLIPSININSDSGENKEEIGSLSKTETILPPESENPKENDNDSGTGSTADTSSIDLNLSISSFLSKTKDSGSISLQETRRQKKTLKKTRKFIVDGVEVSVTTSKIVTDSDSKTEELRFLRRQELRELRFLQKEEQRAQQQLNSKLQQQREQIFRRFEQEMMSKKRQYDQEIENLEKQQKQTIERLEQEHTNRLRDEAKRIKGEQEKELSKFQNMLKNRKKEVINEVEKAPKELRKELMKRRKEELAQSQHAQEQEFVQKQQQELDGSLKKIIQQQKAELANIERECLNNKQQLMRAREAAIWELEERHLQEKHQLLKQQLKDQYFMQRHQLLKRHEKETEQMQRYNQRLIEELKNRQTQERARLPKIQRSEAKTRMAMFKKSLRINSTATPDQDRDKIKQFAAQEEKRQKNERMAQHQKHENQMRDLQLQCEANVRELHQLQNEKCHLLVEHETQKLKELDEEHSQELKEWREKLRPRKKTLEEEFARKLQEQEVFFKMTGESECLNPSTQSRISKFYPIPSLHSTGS
# UniProt Q9HBH5: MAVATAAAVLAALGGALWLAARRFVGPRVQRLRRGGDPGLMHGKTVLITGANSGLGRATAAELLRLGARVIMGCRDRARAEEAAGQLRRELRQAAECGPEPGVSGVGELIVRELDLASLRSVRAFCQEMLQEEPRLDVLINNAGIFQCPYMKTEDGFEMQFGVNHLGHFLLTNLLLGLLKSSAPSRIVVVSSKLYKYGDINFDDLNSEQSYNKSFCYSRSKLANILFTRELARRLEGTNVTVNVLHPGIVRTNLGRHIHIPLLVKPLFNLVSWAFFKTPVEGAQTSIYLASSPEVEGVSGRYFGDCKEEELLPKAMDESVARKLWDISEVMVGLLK
# UniProt Q9H840: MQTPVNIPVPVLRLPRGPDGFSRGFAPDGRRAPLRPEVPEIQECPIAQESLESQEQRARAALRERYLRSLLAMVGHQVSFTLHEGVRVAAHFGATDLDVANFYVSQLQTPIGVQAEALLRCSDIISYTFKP
# UniProt Q9NSY1, whole entry, looked up: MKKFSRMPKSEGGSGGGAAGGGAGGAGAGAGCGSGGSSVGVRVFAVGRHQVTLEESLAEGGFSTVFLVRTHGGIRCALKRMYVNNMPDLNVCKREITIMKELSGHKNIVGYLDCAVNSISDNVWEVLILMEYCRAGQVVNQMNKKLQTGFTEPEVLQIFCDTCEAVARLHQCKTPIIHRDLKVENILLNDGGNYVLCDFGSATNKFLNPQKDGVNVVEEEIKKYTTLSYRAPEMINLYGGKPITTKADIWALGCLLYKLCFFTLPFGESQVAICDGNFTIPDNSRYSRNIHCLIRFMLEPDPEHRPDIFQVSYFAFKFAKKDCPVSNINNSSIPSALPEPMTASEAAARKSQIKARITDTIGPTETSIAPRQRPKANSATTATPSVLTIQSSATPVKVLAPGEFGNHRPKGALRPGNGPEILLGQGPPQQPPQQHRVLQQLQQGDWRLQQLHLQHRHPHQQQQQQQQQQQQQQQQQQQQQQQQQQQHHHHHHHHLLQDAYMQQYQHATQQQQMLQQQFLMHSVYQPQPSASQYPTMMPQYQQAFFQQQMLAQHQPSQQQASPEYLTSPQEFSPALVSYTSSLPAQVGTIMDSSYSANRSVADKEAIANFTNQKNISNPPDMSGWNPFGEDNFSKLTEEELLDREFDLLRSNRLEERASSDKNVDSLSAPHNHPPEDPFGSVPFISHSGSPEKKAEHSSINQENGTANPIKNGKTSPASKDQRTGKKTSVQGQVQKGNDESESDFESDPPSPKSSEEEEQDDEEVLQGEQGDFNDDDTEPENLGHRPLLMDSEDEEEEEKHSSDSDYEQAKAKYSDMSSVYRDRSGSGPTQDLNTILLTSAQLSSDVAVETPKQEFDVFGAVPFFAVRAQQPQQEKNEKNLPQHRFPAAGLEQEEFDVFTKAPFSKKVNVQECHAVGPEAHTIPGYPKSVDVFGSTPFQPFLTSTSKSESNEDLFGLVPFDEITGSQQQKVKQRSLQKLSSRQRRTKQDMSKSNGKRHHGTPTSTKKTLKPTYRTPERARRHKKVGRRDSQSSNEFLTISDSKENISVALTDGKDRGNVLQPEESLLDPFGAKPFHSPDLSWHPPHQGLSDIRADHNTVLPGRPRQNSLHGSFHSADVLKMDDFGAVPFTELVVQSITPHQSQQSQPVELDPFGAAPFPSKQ
# UniProt Q9NQS1: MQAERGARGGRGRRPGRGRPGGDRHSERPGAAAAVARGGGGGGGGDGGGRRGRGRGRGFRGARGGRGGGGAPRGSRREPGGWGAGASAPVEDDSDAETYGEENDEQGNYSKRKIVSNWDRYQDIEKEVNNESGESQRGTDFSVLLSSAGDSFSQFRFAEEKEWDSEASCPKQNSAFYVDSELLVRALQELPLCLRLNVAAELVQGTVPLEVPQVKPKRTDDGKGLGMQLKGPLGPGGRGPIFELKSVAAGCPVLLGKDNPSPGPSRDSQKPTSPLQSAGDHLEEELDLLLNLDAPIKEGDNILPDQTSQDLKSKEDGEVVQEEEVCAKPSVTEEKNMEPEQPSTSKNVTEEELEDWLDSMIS
# UniProt Q9NQE9: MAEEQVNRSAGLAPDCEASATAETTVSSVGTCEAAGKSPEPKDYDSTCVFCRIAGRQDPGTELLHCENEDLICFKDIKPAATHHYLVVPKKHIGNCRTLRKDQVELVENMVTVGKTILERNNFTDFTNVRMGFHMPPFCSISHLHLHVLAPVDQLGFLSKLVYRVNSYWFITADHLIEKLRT
# UniProt Q9H871: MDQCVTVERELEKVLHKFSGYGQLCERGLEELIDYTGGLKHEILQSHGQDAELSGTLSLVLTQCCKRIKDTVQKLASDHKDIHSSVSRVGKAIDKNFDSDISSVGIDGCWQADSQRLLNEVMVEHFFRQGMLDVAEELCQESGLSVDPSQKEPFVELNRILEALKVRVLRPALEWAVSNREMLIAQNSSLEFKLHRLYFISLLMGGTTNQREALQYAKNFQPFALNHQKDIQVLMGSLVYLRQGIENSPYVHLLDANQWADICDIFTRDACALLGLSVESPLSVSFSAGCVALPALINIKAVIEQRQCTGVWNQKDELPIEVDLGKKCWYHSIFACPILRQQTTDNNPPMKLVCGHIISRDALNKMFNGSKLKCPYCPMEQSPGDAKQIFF
# UniProt Q9NRW7: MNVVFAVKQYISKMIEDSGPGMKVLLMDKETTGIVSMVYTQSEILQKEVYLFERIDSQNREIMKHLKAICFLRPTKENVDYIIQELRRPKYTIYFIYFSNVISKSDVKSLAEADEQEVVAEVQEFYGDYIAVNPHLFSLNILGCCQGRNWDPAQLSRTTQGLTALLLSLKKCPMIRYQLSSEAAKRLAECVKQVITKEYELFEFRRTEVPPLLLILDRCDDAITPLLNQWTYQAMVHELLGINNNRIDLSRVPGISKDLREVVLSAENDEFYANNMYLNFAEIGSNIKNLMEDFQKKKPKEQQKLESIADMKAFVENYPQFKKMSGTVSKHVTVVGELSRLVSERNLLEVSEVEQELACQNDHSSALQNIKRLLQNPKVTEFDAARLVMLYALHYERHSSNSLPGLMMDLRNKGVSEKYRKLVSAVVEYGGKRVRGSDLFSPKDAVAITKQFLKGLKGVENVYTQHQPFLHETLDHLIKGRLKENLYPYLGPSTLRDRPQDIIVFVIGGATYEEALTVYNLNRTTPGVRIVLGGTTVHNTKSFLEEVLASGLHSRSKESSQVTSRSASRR
# UniProt Q9GZU8: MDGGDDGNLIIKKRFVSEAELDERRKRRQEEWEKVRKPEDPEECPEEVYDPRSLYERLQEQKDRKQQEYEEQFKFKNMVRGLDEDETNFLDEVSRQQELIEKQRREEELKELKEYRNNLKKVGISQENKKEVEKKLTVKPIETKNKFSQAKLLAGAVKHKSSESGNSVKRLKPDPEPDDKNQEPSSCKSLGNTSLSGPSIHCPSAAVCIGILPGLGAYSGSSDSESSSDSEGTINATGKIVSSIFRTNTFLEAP
# UniProt Q9H467: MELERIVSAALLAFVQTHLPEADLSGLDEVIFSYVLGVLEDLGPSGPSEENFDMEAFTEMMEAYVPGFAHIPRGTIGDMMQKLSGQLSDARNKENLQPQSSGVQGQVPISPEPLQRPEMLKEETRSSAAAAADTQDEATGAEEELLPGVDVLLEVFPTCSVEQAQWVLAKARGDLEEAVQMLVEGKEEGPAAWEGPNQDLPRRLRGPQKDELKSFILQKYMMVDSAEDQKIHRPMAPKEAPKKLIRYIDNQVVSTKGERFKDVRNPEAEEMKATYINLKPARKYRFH
# UniProt Q9H3R5: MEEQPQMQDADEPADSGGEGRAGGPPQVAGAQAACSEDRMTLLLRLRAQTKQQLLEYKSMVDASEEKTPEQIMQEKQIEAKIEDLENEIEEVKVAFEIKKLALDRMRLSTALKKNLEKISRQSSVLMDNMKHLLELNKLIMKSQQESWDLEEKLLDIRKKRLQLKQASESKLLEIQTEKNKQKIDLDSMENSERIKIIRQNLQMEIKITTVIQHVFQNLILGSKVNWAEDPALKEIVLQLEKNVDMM
# ± gives the standard deviation of the averaged measurements. The list shows a part of the results.
# Compound: Nc1nc2c(ncn2[C@@H]2O[C@H](COP(=O)(O)OP(=O)(O)OP(=O)(O)O)[C@@H](O)[C@H]2O)c(=O)[nH]1 [guanosine triphosphate]
# Assay: NP40-soluble protein abundance relative to vehicle (solubility fold change) (ratio); higher = more soluble protein in presence of GTP
# Procedure, shortened: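 Each value is a fold change relative to the detergent-processed vehicle, calculated per replicate from vsn-normalised intensities. Jurkat crude lysate received eight concentrations (0.1 to 10 mM) for 10 min at room temperature and 3 min at 37 °C, then was solubilised in 0.8% NP40 with benzonase (60 min, 4 °C). The ultracentrifuged supernatant was TMT-labelled and run by LC-MS/MS in three independent experiments.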
Target,NP40-soluble protein abundance (concentration: 0.1mM),NP40-soluble protein abundance (concentration: 0.5mM),NP40-soluble protein abundance (concentration: 1mM),NP40-soluble protein abundance (concentration: 2mM),NP40-soluble protein abundance (concentration: 4mM),NP40-soluble protein abundance (concentration: 6mM),NP40-soluble protein abundance (concentration: 8mM),NP40-soluble protein abundance (concentration: 10mM)
UniProt Q9H008 and related entries,0.971 ± 0.017,0.957 ± 0.032,0.93 ± 0.075,0.934 ± 0.036,0.89 ± 0.052,0.925 ± 0.058,0.86 ± 0.062,0.849 ± 0.07
DSN1 (UniProt Q9H410),0.948 ± 0.025,0.937 ± 0.026,0.941 ± 0.046,0.935 ± 0.012,0.934 ± 0.036,0.948 ± 0.011,0.945 ± 0.061,0.942 ± 0.031
OSGEPL1 (UniProt Q9H4B0),1.08 ± 0.1,0.942 ± 0.1,1.11 ± 0.11,1 ± 0.099,0.94 ± 0.062,0.994 ± 0.13,0.956 ± 0.042,0.924 ± 0.087
UniProt Q9GZT8 and related entries,0.9977 ± 0.0072,1 ± 0.094,0.876 ± 0.064,0.907 ± 0.13,0.907 ± 0.054,0.906 ± 0.087,0.873 ± 0.013,0.859 ± 0.04
UniProt Q9H2G2 and related entries,0.944 ± 0.073,0.944 ± 0.069,0.924 ± 0.065,0.893 ± 0.081,0.887 ± 0.083,0.897 ± 0.088,0.925 ± 0.064,0.901 ± 0.073
RDH14 (UniProt Q9HBH5),1.04 ± 0.077,1.04 ± 0.068,0.973 ± 0.086,1.01 ± 0.083,1.01 ± 0.085,0.959 ± 0.062,0.958 ± 0.089,0.939 ± 0.1
GEMIN7 (UniProt Q9H840),1.02 ± 0.074,1.08 ± 0.18,1.11 ± 0.11,1.18 ± 0.032,1.21 ± 0.084,1.2 ± 0.1,1.31 ± 0.23,1.31 ± 0.13
UniProt Q9NSY1,1.11 ± 0.11,1.14 ± 0.048,1.21 ± 0.058,1.18 ± 0.044,1.25 ± 0.079,1.27 ± 0.035,1.34 ± 0.079,1.35 ± 0.13
AVEN (UniProt Q9NQS1),0.799 ± 0.025,0.719 ± 0.076,0.905 ± 0.07,0.868 ± 0.096,0.96 ± 0.13,0.967 ± 0.08,0.973 ± 0.12,1.12 ± 0.021
HINT3 (UniProt Q9NQE9),1.04 ± 0.023,1.04 ± 0.024,0.983 ± 0.058,0.955 ± 0.056,0.911 ± 0.033,0.929 ± 0.031,0.918 ± 0.038,0.905 ± 0.08
UniProt Q9H871,1.12 ± 0.07,1.09 ± 0.058,1.11 ± 0.11,1.17 ± 0.15,1.18 ± 0.14,1.14 ± 0.17,1.18 ± 0.19,1.14 ± 0.14
UniProt Q9NRW7 and related entries,1.02 ± 0.033,1 ± 0.049,0.9449 ± 0.0091,0.936 ± 0.027,0.915 ± 0.033,0.9257 ± 0.0027,0.894 ± 0.027,0.858 ± 0.059
UniProt Q9GZU8,0.899 ± 0.012,0.902 ± 0.046,0.9756 ± 0.0087,0.911 ± 0.025,0.896 ± 0.016,0.911 ± 0.046,0.917 ± 0.049,0.931 ± 0.013
CUEDC2 (UniProt Q9H467),0.911 ± 0.065,0.867 ± 0.062,0.97 ± 0.012,0.919 ± 0.04,0.934 ± 0.039,0.891 ± 0.036,0.901 ± 0.099,0.943 ± 0.05
CENPH (UniProt Q9H3R5),0.926 ± 0.063,0.995 ± 0.12,0.987 ± 0.068,0.978 ± 0.0098,0.942 ± 0.034,1.05 ± 0.045,1.03 ± 0.039,1.2 ± 0.33

# Look-ups from the list.
# NP40-soluble protein abundance (concentration: 4mM) with UniProt Q9GZU8 is entered as 0.896 ± 0.016
# NP40-soluble protein abundance (concentration: 0.1mM) with UniProt Q9NSY1 is entered as 1.11 ± 0.11
